# Hit rate of the full screen: of about 390,000 compounds, about 4,000 (1%) were called active. Inconclusive means that the source gave no clear call. Such entries were picked first, then a sample of the others. Calls come from the whole dose curve; as a rule, active = well fitted inhibition curve with a large enough effect; inconclusive = small, poorly fitted or top-dose-only effect, or another doubt; inactive = no such curve, though single readings can be large or run the other way. Potencies beside an inconclusive call are fits to weak or partial responses and may not hold up.
# By UniProt entry, the sequences of proteins in these tests, tags left out. Where a name states a change or a piece, a line headed by the entry shows the natural chain unless it says otherwise.
# UniProt Q9UNA4: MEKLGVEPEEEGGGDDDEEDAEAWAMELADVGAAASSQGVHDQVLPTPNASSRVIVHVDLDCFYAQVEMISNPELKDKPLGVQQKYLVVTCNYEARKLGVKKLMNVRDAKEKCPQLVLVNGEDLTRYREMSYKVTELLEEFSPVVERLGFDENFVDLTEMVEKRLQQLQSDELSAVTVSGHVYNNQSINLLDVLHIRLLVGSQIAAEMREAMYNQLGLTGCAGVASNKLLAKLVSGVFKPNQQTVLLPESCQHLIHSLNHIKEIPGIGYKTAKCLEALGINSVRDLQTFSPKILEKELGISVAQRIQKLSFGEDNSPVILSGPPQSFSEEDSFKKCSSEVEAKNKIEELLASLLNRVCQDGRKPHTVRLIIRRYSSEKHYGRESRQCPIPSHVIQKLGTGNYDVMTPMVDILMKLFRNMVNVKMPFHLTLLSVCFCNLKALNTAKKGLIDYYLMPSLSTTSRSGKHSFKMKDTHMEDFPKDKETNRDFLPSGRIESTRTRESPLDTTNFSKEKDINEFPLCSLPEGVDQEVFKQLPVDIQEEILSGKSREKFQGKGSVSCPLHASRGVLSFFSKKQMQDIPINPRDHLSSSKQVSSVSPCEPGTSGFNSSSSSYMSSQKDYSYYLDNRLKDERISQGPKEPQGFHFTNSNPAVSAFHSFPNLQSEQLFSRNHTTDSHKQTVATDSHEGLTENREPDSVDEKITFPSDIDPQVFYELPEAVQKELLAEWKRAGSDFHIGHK
# Target: DNA polymerase iota (Homo sapiens) (UniProt Q9UNA4)
# Assay: qHTS for Inhibitors of Polymerase Iota
# Settings: Pol iota fluorescent replication assay, 10 min; series mostly up to 115 µM; activity, negative = inhibition: at the top concentration
# Outline: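 Fluorescent replication assay read twice, at 0 min and 10 min after adding 50 nM (final) substrate. Enzyme (10 nM) and compounds were first incubated 15 min at room temperature; enzyme-free buffer wells were negative controls.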
# Potency is the fitted concentration of half-maximal effect.
Structure (SMILES),Potency,"activity, negative = inhibition"
CCN(CC)S(=O)(=O)c1ccc2c(c1)N(CC(=O)Nc1ccc(Cl)cc1)C(=O)C1CCCN21 (configuration not stated),"inconclusive: 89.1 µM [inhibitor, single point]",–
c1ccc(-c2cc3ccccc3[nH]2)cc1,"inconclusive: 89.1 µM [inhibitor, partial curve, poor fit]",–
COc1ccc(C(=O)O)nc1C,"inconclusive: 39.8 µM [inhibitor, single point]",–
CC(=O)N(C)c1ccc(N=C2C(=O)Nc3ccccc32)cc1,"inconclusive: 44.7 µM [inhibitor, partial curve]",–
O=C(NCc1cccc(Br)c1)c1cc(-c2ccccc2)nn1CC1CC(c2cccnc2)=NO1 (configuration not stated),"inconclusive: 2.82 µM [inhibitor, partial curve, poor fit]",–
C1=C(c2ccccc2)CCN(c2nc3ccccc3n3cnnc23)C1,"inconclusive: 12.6 µM [inhibitor, partial curve]",–
COc1ccc(CNC(=O)CCC2N=C3c4ccccc4N=C(SCC(=O)NCCc4ccc(OC)c(OC)c4)N3C2=O)cc1 (configuration not stated),–,inactive: -4.28%
COc1ccc(NC(=O)Cn2ccn(-c3ccc(F)c(F)c3)c(=O)c2=O)cc1Cl,"inconclusive: 79.4 µM [inhibitor, single point]",–
O=C(c1ccccc1Cl)n1nc(-c2ccco2)nc1NCc1cccs1,–,inactive: 2.6%
CCOC(=O)Cc1[nH]nc2c1C(c1cc(OC)ccc1OC)C(C#N)=C(N)O2 (configuration not stated),"inconclusive: 35.5 µM [inhibitor, single point]",–
CCN(CC)c1ccc(/C=C(\C#N)c2ccccn2)cc1,"inconclusive: 79.4 µM [inhibitor, partial curve]",–
Cn1c(=O)c2cc(S(=O)(=O)NC(Cc3ccccc3)C(=O)Nc3ccc(F)cc3)ccc2n(C)c1=O (configuration not stated),"inconclusive: 79.4 µM [inhibitor, single point]",–
C[C@]12CCC[C@H](O1)[C@H]([C@@H](O)c1ccccc1)O2,"inconclusive: 10 µM [inhibitor, partial curve, poor fit]",–
CC(=O)N1CCCc2cc(S(=O)(=O)N(C)CC(=O)Nc3cccc(Cl)c3C)ccc21,–,inactive: 18.1%
COc1ccc(C(=O)/C=C(\C)Nc2ccc(NC(C)=O)cc2)cc1,"inconclusive: 112 µM [inhibitor, partial curve, poor fit]",–
O=C(OCC(=O)c1cccs1)c1cccc(C(=O)OCC(=O)c2cccs2)n1,"inconclusive: 31.6 µM [inhibitor, partial curve, poor fit]",–
N[C@H](C(=O)O)[C@H](O)C(=O)O,–,inactive: 1.31% [at 58.9 µM]
COC(=O)c1ccc(CSc2nc3ccc(Cl)cc3[nH]2)o1,"inconclusive: 14.1 µM [inhibitor, full curve, poor fit]",–
Cc1nc(-n2nc(C)c(Cc3ccc(Cl)cc3)c2C)sc1C(=O)N1CCC(C)CC1,–,inactive: 0.222%
Cc1ccc(C)c(NC(=O)CSc2nc3nc(-c4cccs4)cc(C(F)(F)F)c3c(=O)[nH]2)c1,"inconclusive: 17.8 µM [inhibitor, full curve]",–
CCOc1ccc(C(=O)Nc2sc3c(c2C(=O)OC)CC(C)(C)NC3(C)C)cc1,"inconclusive: 15.8 µM [inhibitor, partial curve, poor fit]",–

# Another view of some results above:
Structure (SMILES) | Potency | activity, negative = inhibition
c1ccc(-c2cc3ccccc3[nH]2)cc1 | inconclusive: 89.1 µM [inhibitor, partial curve, poor fit] | –
CCOC(=O)Cc1[nH]nc2c1C(c1cc(OC)ccc1OC)C(C#N)=C(N)O2 (configuration not stated) | inconclusive: 35.5 µM [inhibitor, single point] | –

# (cont.)

Structure (SMILES),Potency,"activity, negative = inhibition"
O=C(NCc1ccccc1)c1onc(CSc2nc3ccccc3[nH]2)c1C(=O)NCc1ccccc1,"inconclusive: 22.4 µM [inhibitor, partial curve, poor fit]",–
CCCCC(=O)Nc1cccc(-c2nnc(-c3ccccc3)o2)c1,"inconclusive: 50.1 µM [inhibitor, partial curve, poor fit]",–
Cc1coc2cc3oc(=O)c(CCC(=O)NCCN4CCOCC4)c(C)c3cc12,active: 89.1 µM,–
Cc1cccc(C(=O)N2CCN(Cc3ccc4c(c3)OCO4)CC2)c1,"inconclusive: 12.6 µM [inhibitor, full curve, poor fit]",–
Cc1nn(C(C)C(=O)NCCCN2CCCCCC2)c(=O)c2cc3sccc3n12 (configuration not stated),"inconclusive: 70.8 µM [inhibitor, single point]",–
COCCCNc1nc2ccccc2nc1NS(=O)(=O)c1ccc(Cl)cc1,"inconclusive: 8.91 µM [inhibitor, single point]",–
CC(=O)C1=C(O)C(=O)N(Cc2ccccc2)C1c1ccco1 (configuration not stated),"inconclusive: 39.8 µM [inhibitor, partial curve, poor fit]",–
CN(/N=C/c1ccc(O)cc1O)c1nc(-c2ccccc2)cc(-c2ccccc2)n1,–,inactive: 0.998%
Cc1ccc(SC(CC(=O)c2ccc(C(C)(C)C)cc2)C(=O)O)cc1 (configuration not stated),"inconclusive: 1.78 µM [inhibitor, partial curve, poor fit]",–
COc1ccccc1-c1nc(CNC(=O)NC2CCCCC2)c(C)o1,–,inactive: 30.5%
Cc1ccnc(NS(=O)(=O)c2ccc(NC(=O)/C=C/c3cccs3)cc2)n1,"inconclusive: 25.1 µM [inhibitor, full curve, poor fit]",–
CCCCSc1nc(C)c(CC(=O)OC)c(=O)[nH]1,"inconclusive: 39.8 µM [inhibitor, single point]",–
O=C(COC(=O)C(c1ccccc1)c1ccccc1)NCc1ccco1,"inconclusive: 17.8 µM [inhibitor, partial curve, poor fit]",–
CCCS(=O)(=O)c1c(S(=O)(=O)CCC)c2c(N)cccn2c1C(=O)c1ccc(Br)cc1,"inconclusive: 11.2 µM [inhibitor, partial curve, poor fit]",–
Cn1cccc1Cc1nnc(SCC(N)=O)n1-c1ccc(F)cc1,–,inactive: 64.6%
CN(C)c1cc(-c2ccc(Br)cc2)oc(=O)c1Cl,"inconclusive: 31.6 µM [inhibitor, partial curve, poor fit]",–
Cc1c(Cl)cnc(NC(=O)COC(=O)[C@H](C)NC(=O)c2ccccc2)c1Cl,"inconclusive: 22.4 µM [inhibitor, partial curve]",–
O=C(CCCCCn1c(=S)[nH]c2cc3c(cc2c1=O)OCO3)N1CCN(C(=O)c2ccco2)CC1,active: 28.2 µM,–
CCOC(=O)C1=C(CC)Nc2ccccc2N=C1NC(=O)c1ccc(S(=O)(=O)N(C)C)cc1,"inconclusive: 6.31 µM [inhibitor, single point]",–
CC(=O)c1ccc(NC(=O)CSc2ccsc2[N+](=O)[O-])cc1,"inconclusive: 20 µM [inhibitor, full curve, poor fit]",–
COCCN1C(=O)C(=O)/C(=C(/O)c2ccc(S(=O)(=O)N3CCOCC3)cc2)C1c1cccc(OC)c1 (configuration not stated),–,inactive: -2.88%

Structure (SMILES),Potency,"activity, negative = inhibition"
O=C(Nc1nc(-c2ccco2)cs1)c1ccccc1,"inconclusive: 15.8 µM [inhibitor, full curve, poor fit]",–
O=C(O)CC(c1cccc(Cl)c1)n1cccc1 (configuration not stated),"inconclusive: 5.01 µM [inhibitor, full curve, poor fit]",–
COc1ccc(CCNC(=O)Cn2nnc(-c3ccccc3F)n2)cc1OC,"inconclusive: 89.1 µM [inhibitor, single point]",–
O=C1CSC(=S)N1c1cccnc1,"inconclusive: 15.8 µM [inhibitor, full curve, poor fit]",–
Cc1ccc(Nc2nc(NCc3ccco3)nc3nccnc23)c(C)c1,–,inactive: -6.24%
O=C(CN(C(=O)CCNC(=O)c1ccco1)c1ccccc1)NC1CCCC1,"inconclusive: 39.8 µM [inhibitor, partial curve, poor fit]",–
O=C(/C=C/c1ccco1)Nc1ccc(-c2nc3ccccc3[nH]2)cc1,"inconclusive: 89.1 µM [inhibitor, single point]",–
Cc1ccc(Cl)cc1NC(=O)c1cnn2c1NC(c1ccco1)CC2C(F)(F)F (configuration not stated),"inconclusive: 100 µM [inhibitor, partial curve, poor fit]",–
COc1cccc2c1OC1(C)CC2NC(=O)N1c1cccc(C(=O)Nc2ccc3c(c2)OCCO3)c1 (configuration not stated),"inconclusive: 39.8 µM [inhibitor, single point]",–
COc1ccc(OC)c(C2c3[nH]c4ccccc4c3C[C@H]3C(=O)N(CCCOC(C)C)CC(=O)N23)c1 (some centres not stated),"inconclusive: 17.8 µM [inhibitor, partial curve]",–
Cc1ccc(N(C)C(=O)Cn2ncc3c([nH]c4ccccc43)c2=O)cc1C,–,inactive: 7.45%
Cc1ccc(C2(C)NC(=O)N(CC(=O)Nc3ccc(-c4nc5ccc(C)cc5s4)cc3)C2=O)cc1 (configuration not stated),–,inactive: -8.3%
Nc1ccc(O)c2c1C(=O)c1ccccc1C2=O,active: 39.8 µM,–
CC(=O)c1ccc(-c2ccc(/C=C(/Sc3n[nH]c(C)n3)C(=O)O)o2)cc1,"inconclusive: 14.1 µM [inhibitor, full curve, poor fit]",–
Cc1nc(C)c(C(=O)Nc2nc3c(C)cccc3s2)o1,"inconclusive: 10 µM [inhibitor, full curve, poor fit]",–
O=C(O)c1cccc(N/N=C/c2ccc(-c3ccccc3)cc2)c1,"inconclusive: 56.2 µM [inhibitor, partial curve, poor fit]",–
COc1ccc(N2CCN(C(=O)Cn3cnc4sc(C)c(S(=O)(=O)N5CCCCC5)c4c3=O)CC2)cc1,–,inactive: 18.7%
CCN(CC)S(=O)(=O)c1cccc(-n2c(O)c(C=Nc3ccccc3C(=O)O)c3ccccc3c2=O)c1,"inconclusive: 11.2 µM [inhibitor, partial curve, poor fit]",–
CCOC(=O)c1c(-c2ccc(C)cc2)csc1NC(=O)/C(C#N)=C/c1ccc(O)c(OC)c1,"inconclusive: 35.5 µM [inhibitor, partial curve, poor fit]",–
Cn1c2ccccc2c(=O)c2c(=O)n(Cc3ccco3)c(COc3ccccc3)nc21,"inconclusive: 15.8 µM [inhibitor, partial curve, poor fit]",–

# Reference: PubChem BioAssay AID588590 (National Center for Advancing Translational Sciences (NCATS), 2011)
